Data: the supplement of paper PMC4635364
Where a name gives a salt, the structure may show the parent alone. The list shows a part of the results. This data set is noisy: repeats of one test often differ as much as different tests do.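 Human fetal ventral-midbrain neural progenitor line ReNCell VM, differentiated without mitogens. Images stained for doublecortin (early neurons) or tyrosine hydroxylase (dopaminergic neurons) were scored by blinded raters against untreated wells (0 = no change). Repeats and both raters were averaged, and compounds averaging 2 or higher were picked as hits for retesting.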

Key:
[1] = system: ReNCell VM; test: neuronal differentiation score (DCX+ cell fraction vs untreated, manual image score) (score (-3 to 3)); higher = more neuronal differentiation; conditions: 2 uM, 2 weeks
[2] = system: ReNCell VM; test: dopaminergic neuron differentiation score (TH+ cell fraction vs untreated, manual image score) (score (0 to 3)); higher = more TH+ dopaminergic neuron differentiation; conditions: 2 uM, 4 weeks, BDNF 10 ng/ml + GDNF 10 ng/ml

O=C1Nc2ccc(I)cc2/C1=C/c1cc(Br)c(O)c(Br)c1
inactive: neuronal differentiation score ([1]; library: LOPAC) 1 | neuronal differentiation score ([1]; library: Tocriscreen) 0 | dopaminergic neuron differentiation score ([2]; library: LOPAC) 0 | dopaminergic neuron differentiation score ([2]; library: Tocriscreen) 0

NS(=O)(=O)c1cc2c(cc1Cl)NCNS2(=O)=O [Hydrochlorothiazide]
inactive: neuronal differentiation score ([1]; library: LOPAC) 0 | neuronal differentiation score ([1]; library: Prestwick) 0 | dopaminergic neuron differentiation score ([2]; library: LOPAC) 0 | dopaminergic neuron differentiation score ([2]; library: Prestwick) 0

CCCNC(=O)NS(=O)(=O)c1ccc(Cl)cc1 [Chlorpropamide]
inactive: neuronal differentiation score ([1]; library: LOPAC) 0 | neuronal differentiation score ([1]; library: Prestwick) 0 | dopaminergic neuron differentiation score ([2]; library: LOPAC) 0 | dopaminergic neuron differentiation score ([2]; library: Prestwick) 0

C[C@]12CC[C@@H]3c4ccc(O)cc4C[C@@H](CCCCCCCCC[S+]([O-])CCCC(F)(F)C(F)(F)F)[C@H]3[C@@H]1CC[C@@H]2O (stereo partly drawn)
inactive: neuronal differentiation score ([1]; library: Spectrum) 0 | neuronal differentiation score ([1]; library: Tocriscreen) 0 | dopaminergic neuron differentiation score ([2]; library: Spectrum) 1 | dopaminergic neuron differentiation score ([2]; library: Tocriscreen) 0

CCc1c(C)[nH]c2c1C(=O)C(CN1CCOCC1)CC2 (stereo not drawn) [Molindone hydrochloride]
inactive: neuronal differentiation score ([1]; library: LOPAC) 0 | neuronal differentiation score ([1]; library: Prestwick) 0 | dopaminergic neuron differentiation score ([2]; library: LOPAC) 0 | dopaminergic neuron differentiation score ([2]; library: Prestwick) 0

c1ccc(C2CN3CCSC3=N2)cc1 (stereo not drawn) [Tetramisole hydrochloride]
inactive: neuronal differentiation score ([1]; library: LOPAC) 0 | neuronal differentiation score ([1]; library: Prestwick) 0 | dopaminergic neuron differentiation score ([2]; library: LOPAC) 0 | dopaminergic neuron differentiation score ([2]; library: Prestwick) 0

As a short view, 2 of the compounds above:
NS(=O)(=O)c1cc2c(cc1Cl)NCNS2(=O)=O [Hydrochlorothiazide]
inactive: neuronal differentiation score ([1]; library: LOPAC) 0 | neuronal differentiation score ([1]; library: Prestwick) 0 | dopaminergic neuron differentiation score ([2]; library: LOPAC) 0 | dopaminergic neuron differentiation score ([2]; library: Prestwick) 0

CCCNC(=O)NS(=O)(=O)c1ccc(Cl)cc1 [Chlorpropamide]
inactive: neuronal differentiation score ([1]; library: LOPAC) 0 | neuronal differentiation score ([1]; library: Prestwick) 0 | dopaminergic neuron differentiation score ([2]; library: LOPAC) 0 | dopaminergic neuron differentiation score ([2]; library: Prestwick) 0

Additional entries follow.

COC(=O)C1=C(C)NC(C)=C(C(=O)OCCN(C)Cc2ccccc2)C1c1cccc([N+](=O)[O-])c1 (stereo not drawn) [Nicardipine hydrochloride]
inactive: neuronal differentiation score ([1]; library: LOPAC) 0 | neuronal differentiation score ([1]; library: Prestwick) 0 | dopaminergic neuron differentiation score ([2]; library: LOPAC) 0 | dopaminergic neuron differentiation score ([2]; library: Prestwick) 0

O=C(/C=C/c1ccc(O)cc1)c1ccc(O)cc1O [Isoliquiritigenin]
inactive: neuronal differentiation score ([1]; library: LOPAC) 0 | neuronal differentiation score ([1]; library: Phytochemical) 0 | dopaminergic neuron differentiation score ([2]; library: LOPAC) 0 | dopaminergic neuron differentiation score ([2]; library: Phytochemical) 0

NNc1nncc2ccccc12 [Hydralazine hydrochloride]
inactive: neuronal differentiation score ([1]; library: LOPAC) 0 | neuronal differentiation score ([1]; library: Prestwick) 0 | dopaminergic neuron differentiation score ([2]; library: LOPAC) 0 | dopaminergic neuron differentiation score ([2]; library: Prestwick) 0

CCCN(CC1CC1)c1nc(C)nc(Nc2c(Cl)cc(Cl)cc2Cl)c1Cl
inactive: neuronal differentiation score ([1]; library: LOPAC) 0 | neuronal differentiation score ([1]; library: Tocriscreen) 0 | dopaminergic neuron differentiation score ([2]; library: LOPAC) 0 | dopaminergic neuron differentiation score ([2]; library: Tocriscreen) 0

CC(=O)O[C@H]1C(=O)[C@@]2(C)[C@H]([C@H](OC(=O)c3ccccc3)[C@]3(O)C[C@H](OC(=O)[C@H](O)[C@@H](NC(=O)c4ccccc4)c4ccccc4)C(C)=C1C3(C)C)[C@]1(OC(C)=O)CO[C@@H]1C[C@@H]2O [Taxol]
inactive: neuronal differentiation score ([1]; library: LOPAC) 0 | neuronal differentiation score ([1]; library: Tocriscreen) 0 | dopaminergic neuron differentiation score ([2]; library: LOPAC) 0 | dopaminergic neuron differentiation score ([2]; library: Tocriscreen) 0

O=c1c(-c2ccc(O)cc2)coc2cc(O)ccc12 [Daidzein]
inactive: neuronal differentiation score ([1]; library: LOPAC) 0 | neuronal differentiation score ([1]; library: Tocriscreen) -1 | dopaminergic neuron differentiation score ([2]; library: LOPAC) 0 | dopaminergic neuron differentiation score ([2]; library: Tocriscreen) 0

CCN(CC)CCOC(=O)c1ccc(N)cc1 [Procaine hydrochloride]
inactive: neuronal differentiation score ([1]; library: LOPAC) 0 | neuronal differentiation score ([1]; library: Prestwick) 0 | dopaminergic neuron differentiation score ([2]; library: LOPAC) 0 | dopaminergic neuron differentiation score ([2]; library: Prestwick) 0

Cn1cc(C2=C(c3ccc(Cl)cc3Cl)C(=O)NC2=O)c2ccccc21
inactive: neuronal differentiation score ([1]; library: LOPAC) 0 | neuronal differentiation score ([1]; library: Tocriscreen) 0 | dopaminergic neuron differentiation score ([2]; library: LOPAC) 0 | dopaminergic neuron differentiation score ([2]; library: Tocriscreen) 0

Cc1ccc(/C(=C\CN2CCCC2)c2ccccn2)cc1 [Triprolidine hydrochloride]
inactive: neuronal differentiation score ([1]; library: LOPAC) 0 | neuronal differentiation score ([1]; library: Prestwick) 0 | dopaminergic neuron differentiation score ([2]; library: LOPAC) 0 | dopaminergic neuron differentiation score ([2]; library: Prestwick) 0

C#CCN(C)Cc1ccccc1 [Pargyline hydrochloride]
inactive: neuronal differentiation score ([1]; library: LOPAC) 0 | neuronal differentiation score ([1]; library: Prestwick) 0 | dopaminergic neuron differentiation score ([2]; library: LOPAC) 0 | dopaminergic neuron differentiation score ([2]; library: Prestwick) 0

CCOC(=O)[C@]12CC1/C(=N\O)c1ccccc1O2 (stereo partly drawn)
inactive: neuronal differentiation score ([1]; library: LOPAC) 0 | neuronal differentiation score ([1]; library: Tocriscreen) 0 | dopaminergic neuron differentiation score ([2]; library: LOPAC) 1 | dopaminergic neuron differentiation score ([2]; library: Tocriscreen) 0

CCCNCC(O)COc1ccccc1C(=O)CCc1ccccc1 (stereo not drawn) [Propafenone hydrochloride]
inactive: neuronal differentiation score ([1]; library: LOPAC) 0 | neuronal differentiation score ([1]; library: Prestwick) 0 | dopaminergic neuron differentiation score ([2]; library: LOPAC) 0 | dopaminergic neuron differentiation score ([2]; library: Prestwick) 0

FC(F)(F)c1cc(COC2CCCNC2c2ccccc2)cc(C(F)(F)F)c1 [L-733,060 hydrochloride]
inactive: neuronal differentiation score ([1]; library: LOPAC) 0 | neuronal differentiation score ([1]; library: Tocriscreen) 0 | dopaminergic neuron differentiation score ([2]; library: LOPAC) 0 | dopaminergic neuron differentiation score ([2]; library: Tocriscreen) 0

Cn1nnc2c(C(N)=O)ncn2c1=O [Temozolomide]
inactive: neuronal differentiation score ([1]; library: Prestwick) 0 | neuronal differentiation score ([1]; library: Tocriscreen) 0 | dopaminergic neuron differentiation score ([2]; library: Prestwick) 0 | dopaminergic neuron differentiation score ([2]; library: Tocriscreen) 0

CCC1=C(C)CN(C(=O)NCCc2ccc(S(=O)(=O)NC(=O)N[C@H]3CC[C@H](C)CC3)cc2)C1=O [Glimepiride]
inactive: neuronal differentiation score ([1]; library: Prestwick) 0 | neuronal differentiation score ([1]; library: Tocriscreen) 0 | dopaminergic neuron differentiation score ([2]; library: Prestwick) 0 | dopaminergic neuron differentiation score ([2]; library: Tocriscreen) 0

CCOC(=O)c1ncn2c1CN(C)C(=O)c1cc(F)ccc1-2 [Flumazenil]
inactive: neuronal differentiation score ([1]; library: LOPAC) 0 | neuronal differentiation score ([1]; library: Tocriscreen) 0 | dopaminergic neuron differentiation score ([2]; library: LOPAC) 0 | dopaminergic neuron differentiation score ([2]; library: Tocriscreen) 0

OCCN1CCN(CCCN2c3ccccc3Sc3ccc(C(F)(F)F)cc32)CC1 [Fluphenazine dihydrochloride]
inactive: neuronal differentiation score ([1]; library: LOPAC) 0 | neuronal differentiation score ([1]; library: Prestwick) 0 | dopaminergic neuron differentiation score ([2]; library: LOPAC) 0 | dopaminergic neuron differentiation score ([2]; library: Prestwick) 0

CC(=Cc1ccc(C(=O)O)cc1)c1ccc2c(c1)C(C)(C)CCC2(C)C
inactive: neuronal differentiation score ([1]; library: LOPAC) 0 | neuronal differentiation score ([1]; library: Tocriscreen) 0 | dopaminergic neuron differentiation score ([2]; library: LOPAC) 0 | dopaminergic neuron differentiation score ([2]; library: Tocriscreen) 0

CN1Cc2c(N)cccc2C(c2ccccc2)C1 (stereo not drawn) [Nomifensine maleate]
inactive: neuronal differentiation score ([1]; library: LOPAC) 0 | neuronal differentiation score ([1]; library: Prestwick) 0 | dopaminergic neuron differentiation score ([2]; library: LOPAC) 0 | dopaminergic neuron differentiation score ([2]; library: Prestwick) 0

CCN(CC)CCNC(=O)c1cc(S(C)(=O)=O)ccc1OC [Tiapride hydrochloride]
inactive: neuronal differentiation score ([1]; library: LOPAC) 0 | neuronal differentiation score ([1]; library: Prestwick) 0 | dopaminergic neuron differentiation score ([2]; library: LOPAC) 0 | dopaminergic neuron differentiation score ([2]; library: Prestwick) 0

CSc1ccc2c(c1)N(CCC1CCCCN1C)c1ccccc1S2 (stereo not drawn) [Thioridazine hydrochloride]
inactive: neuronal differentiation score ([1]; library: LOPAC) 0 | neuronal differentiation score ([1]; library: Prestwick) 0 | dopaminergic neuron differentiation score ([2]; library: LOPAC) 0 | dopaminergic neuron differentiation score ([2]; library: Prestwick) 0

CC(C(=O)O)c1cccc(C(=O)c2ccccc2)c1 (stereo not drawn) [Ketoprofen]
inactive: neuronal differentiation score ([1]; library: LOPAC) 0 | neuronal differentiation score ([1]; library: Prestwick) 0 | dopaminergic neuron differentiation score ([2]; library: LOPAC) 0 | dopaminergic neuron differentiation score ([2]; library: Prestwick) 0

CSc1ccc2c(c1)C(N1CCN(C)CC1)Cc1ccccc1S2 (stereo not drawn) [Methiothepin maleate]
inactive: neuronal differentiation score ([1]; library: Prestwick) 0 | neuronal differentiation score ([1]; library: Tocriscreen) 0 | dopaminergic neuron differentiation score ([2]; library: Prestwick) 0 | dopaminergic neuron differentiation score ([2]; library: Tocriscreen) 0

CNS(=O)(=O)Cc1ccc2[nH]cc(CCN(C)C)c2c1 [Sumatriptan succinate]
inactive: neuronal differentiation score ([1]; library: Prestwick) 0 | neuronal differentiation score ([1]; library: Tocriscreen) 0 | dopaminergic neuron differentiation score ([2]; library: Prestwick) 0 | dopaminergic neuron differentiation score ([2]; library: Tocriscreen) 0

N=C(N)c1ccc(OCCCCCOc2ccc(C(=N)N)cc2)cc1 [Pentamidine isethionate]
inactive: neuronal differentiation score ([1]; library: LOPAC) 0 | neuronal differentiation score ([1]; library: Prestwick) 0 | dopaminergic neuron differentiation score ([2]; library: LOPAC) 0 | dopaminergic neuron differentiation score ([2]; library: Prestwick) 0

CCC(=O)O[C@]1(C(=O)SCF)[C@H](C)C[C@H]2[C@@H]3C[C@H](F)C4=CC(=O)C=C[C@]4(C)[C@@]3(F)[C@@H](O)C[C@@]21C [Fluticasone propionate]
inactive: neuronal differentiation score ([1]; library: Prestwick) 0 | neuronal differentiation score ([1]; library: Tocriscreen) 0 | dopaminergic neuron differentiation score ([2]; library: Prestwick) 0 | dopaminergic neuron differentiation score ([2]; library: Tocriscreen) 0

COc1cc(Cc2cnc(N)nc2N)cc(OC)c1OC [Trimethoprim]
inactive: neuronal differentiation score ([1]; library: LOPAC) 0 | neuronal differentiation score ([1]; library: Prestwick) 0 | dopaminergic neuron differentiation score ([2]; library: LOPAC) 0 | dopaminergic neuron differentiation score ([2]; library: Prestwick) 0

OCCN1CCN(CCCN2c3ccccc3Sc3ccc(Cl)cc32)CC1 [Perphenazine]
inactive: neuronal differentiation score ([1]; library: LOPAC) 0 | neuronal differentiation score ([1]; library: Prestwick) 0 | dopaminergic neuron differentiation score ([2]; library: LOPAC) 0 | dopaminergic neuron differentiation score ([2]; library: Prestwick) 0

Cc1ncc(C[n+]2csc(CCO)c2C)c(N)n1 [Thiamine hydrochloride]
inactive: neuronal differentiation score ([1]; library: Phytochemical) 0 | dopaminergic neuron differentiation score ([2]; library: Phytochemical) 0
